According to the supplement of paper PMC12823440, “Inhibitors supercharge kinase turnover through native proteolytic circuits” (Nature, 2025):
Where a name gives a salt, the structure may show the parent alone. Some of the results follow. The calls rarely recur for the same compound in another form.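 Kinases were expressed as nanoluciferase fusions in K562 cells and luminescence was read every 4 h between 2 and 18 h as percent of control, DMSO set to 100% and a positive control to 0%. A time point counts as decreased when the signal drops significantly (2 sigma). The hit call is the authors' own, does not follow from the count of time points alone, and its rule is not shown.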

The molecules below were run against RAF1 (UniProt P04049) (assay: number of time points (of 5) at which kinase-Nluc abundance scored as decreased, DMSO-normalised (count); higher = more persistent destabilization). Conditions: K562; 2-18 h.

| Structure (SMILES) | number of time points |
| --- | --- |
| COc1ccc(Br)c(C=O)c1O [6-Bromo-2-hydroxy-3-methoxybenzaldehyde] (10 µM) | 0 |
| O=C1C=CC2=C3c4cc(O)c(O)cc4CC3(O)COC2=C1O (configuration not stated) [Hematein] (10 µM) | 0 |
| Cc1cccc(CC(=O)N2CCc3c2ccc(-c2cn(C)c4ncnc(N)c24)c3F)n1 (10 µM) | 0 |
| COCCOc1cnc2ccn([C@H](C)c3nnc4c(F)cc(-c5cnn(C)c5)cn34)c(=O)c2c1 (10 µM) | 0 |
| Cn1cc(C2=C(c3ccc(Cl)cc3Cl)C(=O)NC2=O)c2ccccc21 (10 µM) | 0 |
| COc1cc(N2CCC(N3CCN(C)CC3)CC2)ccc1Nc1ncnc(Nc2ccccc2S(=O)(=O)C(C)C)n1 (10 µM) | 0 |
| COc1c(Nc2ncc(Cl)c(N[C@H]3[C@@H](C(N)=O)[C@@H]4C=C[C@H]3C4)n2)ccc2c1CC[C@@H](N1CCOCC1)CC2 (10 µM) | 0 |
| Cc1ccc(NC(=O)N2CCN(c3nc(N)nc4sc(-c5cccnc5)nc34)CC2)cc1 [PI4KIII beta inhibitor 3] (10 µM) | 0 |
| CNc1cc2c(Nc3cccc(Br)c3)ncnc2cn1 (10 µM) | 0 |
| CC(C)n1c(CO)nc2c(F)cc(-c3nc(Nc4ccc(CN5CCNCC5)cn4)ncc3F)cc21 (10 µM) | 3 |
| CN1CCC(Nc2ccc(C(=O)Nc3cc(-c4ccc5c(c4)OCO5)[nH]n3)cc2)CC1 (10 µM) | 0 |
| CNC(=O)CN1CCC(Oc2cc3c(Nc4cccc(Cl)c4F)ncnc3cc2OC)CC1 [Sapitinib] (10 µM) | 0 |
| O=C(O)c1c[nH]c2cc(Cl)c(-c3ccc(C4(O)CCC4)cc3)cc12 (10 µM) | 0 |
| COc1cc(N2CCC(O)CC2)ccc1Nc1nc(Nc2ccccc2S(=O)(=O)C(C)C)c2[nH]cnc2n1 (10 µM) | 0 |
| O=c1c(O)c(-c2ccc(O)c(O)c2)oc2cc(O)c(O)c(O)c12 [Quercetagetin] (10 µM) | 0 |
| Cc1ncsc1-c1ccc(CNC(=O)[C@@H]2C[C@@H](O)CN2C(=O)[C@@H](NC(=O)COCCOc2ccc(-c3cc(Nc4ccc(OC(F)(F)F)cc4)ncn3)cc2)C(C)(C)C)cc1 (2.5 µM) | 2 |

| Structure (SMILES) | number of time points |
| --- | --- |
| COc1cc(Nc2ccnc3ccc(Br)cc23)cc(OC)c1OC (2.5 µM) | 1 |
| Cc1ccc2c(NS(=O)(=O)c3ccccc3Cl)cccc2c1Oc1ncccc1-c1ccnc(N[C@H]2CCCNC2)n1 (2.5 µM) | 0 |
| CC(C)c1cc2c(c(O)c1O)[C@@]13CCCC(C)(C)[C@@H]1C[C@@H]2OC3=O [Carnosol] (2.5 µM) | 0 |
| Cc1nc2c(NCc3cccc(S(C)(=O)=O)c3)nccn2c1-c1ccc(O)c(F)c1 (10 µM) | 0 |
| CC(C)n1cnc2c(Nc3cccc(Cl)c3)nc(N[C@H]3CCCC[C@@H]3N)nc21 (2.5 µM) | 0 |
| O=c1cc(N2CCOCC2)oc2c(-c3cccc4c3sc3ccccc34)cccc12 (10 µM) | 0 |
| C[C@@H]1COC(Nc2ccc3ncnc(Nc4ccc(OCc5nccs5)c(Cl)c4)c3c2)=N1 [Varlitinib] (10 µM) | 0 |
| Cc1cncc2cccc(S(=O)(=O)N3CCCNC[C@@H]3C)c12 [H-1152 (dihydrochloride)] (10 µM) | 0 |
| CCC[C@H](C)Oc1nc(N)c2[nH]c(=O)n(CCCCCN3CCCCC3)c2n1 (10 µM) | 0 |
| CC(C)(Oc1ccc(Cl)cc1)C(=O)Nc1ccc(OCc2ccc(C#N)cc2)cc1 [AMPK activator 4] (10 µM) | 0 |
| Cc1cc(N2CCOCC2)ccc1Nc1nc(NC2CCCCC2)c2[nH]cnc2n1 (10 µM) | 0 |
| CC(ONC(=O)c1cc(C(F)(F)F)cc(C(F)(F)F)c1)C(=O)Nc1ccc(Cl)cc1 (configuration not stated) (2.5 µM) | 0 |
| O=S(=O)(c1ccc(O)cc1O)N1Cc2cc(O)cc(O)c2C1 (10 µM) | 0 |
| CN1CCN(c2ccc(-n3cc(-c4ccncc4OCC4CCNCC4)cn3)cc2)CC1 [MELK-8a (hydrochloride)] (10 µM) | 0 |
| CCCCC(=O)OCC(=O)[C@]1(O)Cc2c(O)c3c(c(O)c2[C@@H](O[C@H]2C[C@H](NC(=O)C(F)(F)F)[C@H](O)[C@H](C)O2)C1)C(=O)c1c(OC)cccc1C3=O [Valrubicin] (10 µM) | 0 |
| CC(C)=CCC[C@](C)(O[C@@H]1O[C@H](CO[C@@H]2O[C@H](CO)[C@@H](O)[C@H](O)[C@H]2O)[C@@H](O)[C@H](O)[C@H]1O)[C@H]1CC[C@]2(C)[C@@H]1[C@H](O)C[C@@H]1[C@@]3(C)CC[C@H](O[C@@H]4O[C@H](CO)[C@@H](O)[C@H](O)[C@H]4O[C@@H]4O[C@H](CO)[C@@H](O)[C@H](O)[C@H]4O)C(C)(C)[C@@H]3CC[C@]12C [Ginsenoside Rb1] (10 µM) | 0 |

3 compounds already listed, sorted by number of heavy atoms, ascending:

| Structure (SMILES) | number of time points |
| --- | --- |
| CC(C)n1c(CO)nc2c(F)cc(-c3nc(Nc4ccc(CN5CCNCC5)cn4)ncc3F)cc21 (10 µM) | 3 |
| COc1cc(N2CCC(N3CCN(C)CC3)CC2)ccc1Nc1ncnc(Nc2ccccc2S(=O)(=O)C(C)C)n1 (10 µM) | 0 |
| CC(C)=CCC[C@](C)(O[C@@H]1O[C@H](CO[C@@H]2O[C@H](CO)[C@@H](O)[C@H](O)[C@H]2O)[C@@H](O)[C@H](O)[C@H]1O)[C@H]1CC[C@]2(C)[C@@H]1[C@H](O)C[C@@H]1[C@@]3(C)CC[C@H](O[C@@H]4O[C@H](CO)[C@@H](O)[C@H](O)[C@H]4O[C@@H]4O[C@H](CO)[C@@H](O)[C@H](O)[C@H]4O)C(C)(C)[C@@H]3CC[C@]12C [Ginsenoside Rb1] (10 µM) | 0 |
